# Experimental data taken from PubChem BioAssay AID651660 (Broad Institute, 2012).
# Chains of the proteins cited; added tags and fusions are not shown. Lines headed by an entry give the natural chain unless they say otherwise; changes in a name come on top.
# UniProt P43351: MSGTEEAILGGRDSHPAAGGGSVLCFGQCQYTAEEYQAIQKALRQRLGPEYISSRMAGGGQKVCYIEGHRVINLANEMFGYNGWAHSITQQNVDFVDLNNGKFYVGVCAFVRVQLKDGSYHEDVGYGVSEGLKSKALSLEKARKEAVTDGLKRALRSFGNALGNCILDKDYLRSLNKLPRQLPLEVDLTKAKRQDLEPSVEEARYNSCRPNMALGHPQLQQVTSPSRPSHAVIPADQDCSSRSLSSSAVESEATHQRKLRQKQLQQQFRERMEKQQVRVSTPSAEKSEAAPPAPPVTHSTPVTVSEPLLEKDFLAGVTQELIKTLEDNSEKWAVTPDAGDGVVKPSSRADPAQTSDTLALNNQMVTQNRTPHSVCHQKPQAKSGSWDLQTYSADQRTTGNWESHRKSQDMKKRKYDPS
# Values joined by “and” are separate entries in the source; they are usually repeats but may differ in a detail not shown here. Equal values may be shown once. The campaign covered roughly 1,900 compounds. About 15 (0.8%) were called active.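 How the source made its calls: active means every replicate shows at least 50% inhibition; inconclusive means mean inhibition at least 50% but some replicate below; inactive means the rest.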 Some of the results follow. Residues, ends and D or L forms follow the SMILES beside them. *: point of attachment. Boc = CC(C)(C)OC(=O)*
# Molecular target: DNA repair protein RAD52 homolog (Homo sapiens) (UniProt P43351)
# Test: RAD52 ssDNA annealing inhibitors, primary screen, biochemical, FRET, single point (AID 651660);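 further: 0% = median of neutral control wells and 100% = median of positive control wells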
# Conditions: Recombinant RAD52 ssDNA annealing, FRET fluorescence, 30 min; at 18.7 µM; active compounds read high
row,Compound,inhibition
1,NS(=O)(=O)c1cc2c(cc1Cl)NC(C(Cl)Cl)NS2(=O)=O (centres undefined),inactive: -8.63%
2,C[C@H](NC(=O)OC(C)(C)C)C(=O)NCC1CCC(C(=O)O)CC1 (some centres undefined),inactive: -0.108%
3,NC(N)=NC(=O)Cc1c(Cl)cccc1Cl,inactive: -5.92%
4,O=C(c1ccccc1)N1CCN(C(=O)c2ccccc2)CC1,inactive: -7.09%
5,COc1ccc(OC)c(S(=O)(=O)N2CCCc3ccccc32)c1,inactive: 3.3%
6,NCCc1cnc[nH]1,inactive: -7.79% and inactive: -0.317%
7,CCN(CC)CCNC(=O)c1cc(Cl)c(N)cc1OC,inactive: 5.94%
8,COc1cc2c(cc1OC)C1(CCCC1)CNC2c1cccc([N+](=O)[O-])c1 (centres undefined),inactive: 13.6%
9,Cn1c(=O)c2c(nc(SCCN3CCCCC3)n2C)n(C)c1=O,inactive: -1.44%
10,CCOc1ccc2ccccc2c1C(=O)N[C@@H]1C(=O)N2[C@@H]1SC(C)(C)[C@@H]2C(=O)O,inactive: -5.73%
11,CCCC(=O)O[C@]1(C(=O)CCl)[C@@H](C)C[C@H]2[C@@H]3CCC4=CC(=O)C=C[C@]4(C)[C@@]3(F)C(=O)C[C@@]21C,inactive: 12.1%
12,COc1ccc(CCNC(=O)c2c(O)c3c([nH]c2=O)CCCC3)cc1,inactive: -4.72%
13,CCc1ccc(/C=C2\Oc3cc(OC(=O)N4CCOCC4)ccc3C2=O)cc1,inactive: -7.62%
14,[N-]=[N+]=NC1C[C@H](n2ccc(=O)[nH]c2=O)O[C@@H]1CO (some centres undefined),inactive: -0.741%
15,COc1ccc(S(=O)(=O)NCc2ccco2)c2ccccc12,inactive: -15.4%
16,CC1=NN(c2ccccc2)C(=O)C1,inactive: 4.21%
17,Cc1oc2c(O)c(O)ccc2c(=O)c1-c1ccccc1,inactive: -3.45%
18,O=C(O)CCNC(=O)c1ccccc1,inactive: -3.95%
19,CC(C)CCn1c(N2CCc3ccccc3C2)nc2c1c(=O)[nH]c(=O)n2C,inactive: -3.91%
20,c1ccc(Nc2ccccn2)nc1,inactive: -26.8%
21,CC(C)[N+](C)(CCOC(=O)C1c2ccccc2Oc2ccccc21)C(C)C,inactive: -3.65%
22,COc1cccc2c1C(=O)O/C2=C/c1ccc2c(c1)OCO2,inactive: -3.05%
23,c1cc2c(cc1C1CCCCC1)c1c3n2CCN=C3CCC1,inactive: 43.4%
24,Cc1ccc2c(c1C)NC(C(=O)O)C1CC=CC21 (centres undefined),inactive: -91.9%
25,CCN(Cc1ccncc1)Cc1nc(Cc2ccccc2Cl)no1,inactive: -13.8%

row,Compound,inhibition
1,CC(C)CC(=O)Nc1ccc2oc(-c3ccncc3)nc2c1,inactive: -3.09%
2,CCOc1cc(C)cc2oc(=O)cc(-c3ccccc3)c12,inactive: -1.55%
3,OC[C@H]1O[C@@H](n2cnc3c(NC4CCCC4)ncnc32)[C@H](O)[C@@H]1O,inactive: -4.78%
4,NC(N)=N/N=C/c1ccc(OS(=O)(=O)c2ccccc2)cc1,inactive: 9.35%
5,C1COC(NC(C2CC2)C2CC2)=N1,inactive: -4.16%
6,CCN(CC)CCCNC(=O)C1c2ccccc2Oc2ccccc21,inactive: 4.59%
7,Cc1ccc(S(=O)(=O)Nc2ccc(S(=O)(=O)Nc3cc(C)nc(C)n3)cc2)cc1,inactive: -6.96%
8,O=C1c2ccccc2C(=O)N1/N=C/c1ccc(Oc2ccc([N+](=O)[O-])cn2)cc1,inactive: -3.05%
9,COc1ccc(CCN=C(N)C(C)c2ccccc2)cc1OC (centres undefined),inactive: 7.74%
10,COC1CCN(C(=O)c2ccc(OC3CCN(Cc4ccccn4)CC3)cc2)CC1,inactive: -6.77%
11,COc1ccc(OCC(=O)N2c3ccc(C)cc3C3CN(C)CCC32)cc1 (centres undefined),inactive: -2.15%
12,COc1cccc(CN2CCN(C(=O)c3ccc(-c4ccccc4)cc3)CC2)c1,inactive: -2.78%
13,Cc1nc(N)sc1C(=O)N/N=C/c1ccco1,inactive: -8.8%
14,Cc1ccc(S(=O)(=O)N[C@@H](Cc2ccccc2)C(=O)CCl)cc1,inactive: -0.187%
15,C1CCC(C(CC2CCCCN2)C2CCCCC2)CC1 (centres undefined),active: 62.5%
16,Clc1ccc(OCCCN2CCCCC2)c(Br)c1,inactive: 5.3%
17,O=C(NCCc1cccc(F)c1)[C@@H]1CSC2c3ccccc3C(=O)N21 (some centres undefined),inactive: -14.6%
18,CC(C)NCC(O)COc1ccc(CCOCC2CC2)cc1 (centres undefined),inactive: -4.67%
19,CC(=O)[C@@]1(O)CC[C@H]2[C@@H]3C[C@H](C)C4=CC(=O)C=C[C@]4(C)[C@@]3(F)[C@@H](O)C[C@@]21C,inactive: 4.46%
20,CCc1nc(N)nc(N)c1-c1ccc(Cl)cc1,inactive: 6.62%
21,COc1cccc(-n2cc(CNCc3c(C(=O)N(C)C)nc4ccc(Cl)cn34)cn2)c1,inactive: -5.77%
22,CNS(=O)(=O)c1ccc(C)cc1,inactive: -4.88%
23,COC(=O)c1cc(C(=O)NCCC(C)C)cc([N+](=O)[O-])c1,inactive: 1.21%
24,C/C(=N\NC(=O)C1(C)CC1(Br)Br)c1ccc([N+](=O)[O-])cc1 (centres undefined),inactive: -0.318%
25,CN(C)C(=O)C12CCC(C)(c3nc4ccccc4nc31)C2(C)C (centres undefined),inactive: 5.24%

row,Compound,inhibition
1,c1cnc(N2CCN(Cc3ccc4c(c3)OCO4)CC2)nc1,inactive: -7.05%
2,CCC(CO)NCCNC(CC)CO (centres undefined),inactive: -3.99%
3,CC1CCN(CCOCCOc2ccccc2Br)CC1,inactive: -6.71%
4,CC(C)[C@H]1CN(C)CCN1Cc1cn(C)nc1-c1cccc(Cl)c1,inactive: 5.87%
5,O=C(Nc1c(C(=O)O)[nH]c2ccccc12)NC1CCCCC1,inactive: 6.28%
6,CC(C)C(=O)Nc1c(O)c2ccccc2[nH]c1=O,inactive: -4.57%
7,C(=C\c1ccccc1)/CN1CCN(C(c2ccccc2)c2ccccc2)CC1,inactive: -5.05%
8,C=CCc1cc(Cl)ccc1OCCOCCN(C)C,inactive: 3.43%
9,CC(=O)NC1C(OCCOc2ccc(Cl)cc2Cl)OC(COC(C)=O)C(OC(C)=O)C1OC(C)=O (centres undefined),inactive: -0.287%
10,Cn1c(=O)c2c(ncn2Cc2ccccc2)n(C)c1=O,inactive: 0.734%
11,CCOC(=O)C1C(=O)OC2(CCOC(C)(C)C2)C1C(=O)OCC (centres undefined),inactive: -9.42%
12,Cc1ccc(OCCCCn2ccnc2C)c(C)c1,inactive: -20.1%
13,O=c1ccc2c(o1)/C(=C/C=C(Cl)Cl)CCC2,inactive: -32.2%
14,O=c1c(-c2ccc3c(c2)OCCO3)coc2cc(OC3OC(CO)C(O)C(O)C3O)ccc12 (centres undefined),inactive: 2.13%
15,Cc1cccc(N2CCN(C(=S)c3ccccc3)CC2)c1,inactive: -9.38%
16,CC(C)CN1CCN(Cc2ccc(C#CC(C)(C)O)cc2)CC1CCO (centres undefined),inactive: 0.98%
17,Nc1nc2ccc(OC(F)(F)F)cc2s1,inactive: -0.0755%
18,COc1ccc2c(c1)c(CC(=O)O)c(C)n2C(=O)c1ccc(Cl)cc1,inactive: -6.07%
19,CCc1cccc2c1NC1(CCCC1)CC2C (centres undefined),inactive: 5.29%
20,O=C(COc1ccc2ccc(=O)oc2c1)c1ccccc1,inactive: 2.43%
21,C/C(=N\NC(=O)c1ccccc1[N+](=O)[O-])c1ccc(Br)s1,inactive: -17.1%
22,COc1ccc(OCc2cccc(C(=O)NN)c2)cc1,inactive: -5.52%
23,CC(C)OC(=O)CC1C(=O)NCCN1C(=S)NC(=O)c1cccs1 (centres undefined),inactive: -9.72%
24,NC(N)=NC(N)=NCCc1ccccc1,inactive: -2.33%
25,CC(NC(=O)c1cccnc1)C(=O)O (centres undefined),inactive: 14.8%

# Gathered by group, the compounds so far containing a furan ring, fused or not
row,Compound,inhibition
15,COc1ccc(S(=O)(=O)NCc2ccco2)c2ccccc12,inactive: -15.4%
13,Cc1nc(N)sc1C(=O)N/N=C/c1ccco1,inactive: -8.8%

# The list goes on:

row,Compound,inhibition
1,Cc1csc(-c2coc3cc(O)cc(C)c3c2=O)n1,inactive: 11%
2,COc1ccc(NC(=O)C2C(=O)N(CCO)C3(C)CC2c2ccccc2O3)cc1 (centres undefined),inactive: 4.92%
3,Cc1ccc(S(=O)(=O)n2ccnc2)cc1C,inactive: -6.19%
4,Cc1ncc(C(=O)O)c(C(=O)O)c1N,inactive: -18.8%
5,CN1CCN(CCCN2c3ccccc3Sc3ccc(C(F)(F)F)cc32)CC1,active: 67.4%
6,CC(C)CC(NC(=O)C1CCCN1C(=O)OC(C)(C)C)C(=O)NCC(N)=O (stereo not drawn) (Boc-Pro-Leu-Gly-NH2; configuration not given here),inactive: -6.74%
7,CC(C)[N+]1(C)[C@@H]2CC[C@H]1CC(OC(=O)C(CO)c1ccccc1)C2 (some centres undefined),inactive: -1.24%
8,C[N+]1(C2CCC3CCCC2C3O)CCCCC1 (centres undefined),inactive: -13.3%
9,CNC[C@H](O)c1ccc(O)c(O)c1,inactive: -2.68%
10,COC(=O)c1cc(OC)c(OC)cc1NC(=O)CN1C(=O)c2ccccc2C1=O,inactive: -0.366%
11,CN(C(=O)C(Cl)Cl)c1ccc(OC(=O)c2ccco2)cc1,inactive: 3.28%
12,Cc1oc2c(CN3CCCC3)c(O)ccc2c(=O)c1-c1ccc(Cl)cc1,inactive: 2.93%
13,CN(C)CCOC(C)(c1ccccc1)c1ccccn1 (centres undefined),inactive: -11.3%
14,Cc1ccc(Nc2ncccc2C(=O)O)cc1C,inactive: 2.06%
15,Cc1cc(=O)[nH]c(=S)[nH]1,inactive: -5.96%
16,O=C(CCCCCCCC(=O)c1ccccc1)c1ccccc1,inactive: 2.66%
17,C=C(C)Cn1c(NCCOC)nc2c1c(=O)[nH]c(=O)n2C,inactive: 7.63%
18,COc1cc2c(cc1OC)/C(=C/c1ccc(Cl)cc1)C(=O)OC2,inactive: 7.04%
19,CC(=O)c1ccc(CCCCCCCCCC(=O)O)s1,inactive: -16.6%
20,COC(=O)c1[nH]c(=O)c2ccccc2c1O,inactive: -2.42%
21,CC(=O)N/C(=C/c1ccc2c(c1)OCO2)C(=O)NCCO,inactive: -14.2%
22,CCc1nc2ccccc2c(NC(=O)CN2CC(C)CC(C)C2)c1C (centres undefined),inactive: -5.82%
23,COC(=O)c1cc(-c2ccc(OC)c(OC)c2)on1,inactive: -6.12%
24,COc1ccc(/C=C/C(=O)Nc2ccccc2C(=O)O)cc1OC,inactive: -9.71%

# Among those listed so far, these have a thiophene ring, fused or not:
row,Compound,inhibition
21,C/C(=N\NC(=O)c1ccccc1[N+](=O)[O-])c1ccc(Br)s1,inactive: -17.1%
23,CC(C)OC(=O)CC1C(=O)NCCN1C(=S)NC(=O)c1cccs1 (centres undefined),inactive: -9.72%
19,CC(=O)c1ccc(CCCCCCCCCC(=O)O)s1,inactive: -16.6%
